The target in assay [1] is μ-opioid receptor (MOR1)-TEV (human) (UniProt P35372). Nature of the assay: LinkLight assay (TEV protease on one partner cuts permuted luciferase on the other; luminescence end point); HEK293 cells stably expressing GPCR-TEV and β-arrestin-2-pLuc; serum-free DMEM, serial 1:3 dilution of ligand, 37 °C, 120 min unless otherwise specified; agonist-induced signals.
Assay [2] concerns the target sphingosine-1-phosphate receptor 1 (S1PR1)-TEV (human) (UniProt P21453). The description is as above.
Assay [3] addresses muscarinic cholinergic receptor 5 (CHRM5)-TEV (human) (UniProt P08912). The description is as above.
Assay [4] deals with DRD5(S260A-S261A)-TEV (human) (UniProt P21918). Briefly: LinkLight assay (TEV protease on one partner cuts permuted luciferase on the other; luminescence end point); DRD5-TEV wild type or mutant plasmids transiently transfected into 14-3-3-pLuc (results: 14-3-3γ-pLuc) HEK293 host cells; with or without 10 μM dopamine, four hours, 37 °C.
The next assay concerns the target DRD5(S464A)-TEV (human) (UniProt P21918). Described as above.
Another assay addresses DRD5(T443A)-TEV (human) (UniProt P21918). The assay is described as above.
Assay [5] concerns the target wild type DRD5-TEV (dopamine receptor 5) (human) (UniProt P21918). Described as above.

Protein sequences, listed by entry. Tags and fused reporters are not part of them. Lines headed by an entry give the natural chain unless they say otherwise; changes in a name come on top.
UniProt P35372: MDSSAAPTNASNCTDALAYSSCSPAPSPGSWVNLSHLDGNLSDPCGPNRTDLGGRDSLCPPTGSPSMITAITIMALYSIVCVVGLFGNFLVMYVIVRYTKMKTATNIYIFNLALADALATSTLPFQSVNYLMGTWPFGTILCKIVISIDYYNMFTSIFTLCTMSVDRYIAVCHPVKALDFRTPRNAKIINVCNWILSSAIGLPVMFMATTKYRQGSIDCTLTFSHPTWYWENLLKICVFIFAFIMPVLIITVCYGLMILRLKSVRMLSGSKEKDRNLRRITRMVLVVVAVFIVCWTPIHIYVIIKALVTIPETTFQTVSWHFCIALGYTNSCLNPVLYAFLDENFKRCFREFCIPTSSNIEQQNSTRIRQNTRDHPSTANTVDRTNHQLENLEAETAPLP
UniProt P21453: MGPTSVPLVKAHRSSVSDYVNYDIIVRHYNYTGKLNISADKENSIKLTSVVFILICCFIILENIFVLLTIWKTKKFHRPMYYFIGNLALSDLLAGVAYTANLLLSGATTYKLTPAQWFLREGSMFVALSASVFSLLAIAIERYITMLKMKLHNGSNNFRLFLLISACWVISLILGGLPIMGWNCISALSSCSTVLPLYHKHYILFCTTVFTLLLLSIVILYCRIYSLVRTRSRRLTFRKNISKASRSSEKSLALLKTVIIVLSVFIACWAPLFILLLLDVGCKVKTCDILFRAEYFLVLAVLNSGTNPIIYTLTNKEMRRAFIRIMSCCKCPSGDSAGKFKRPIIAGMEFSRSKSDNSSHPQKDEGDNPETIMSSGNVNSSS
UniProt P08912: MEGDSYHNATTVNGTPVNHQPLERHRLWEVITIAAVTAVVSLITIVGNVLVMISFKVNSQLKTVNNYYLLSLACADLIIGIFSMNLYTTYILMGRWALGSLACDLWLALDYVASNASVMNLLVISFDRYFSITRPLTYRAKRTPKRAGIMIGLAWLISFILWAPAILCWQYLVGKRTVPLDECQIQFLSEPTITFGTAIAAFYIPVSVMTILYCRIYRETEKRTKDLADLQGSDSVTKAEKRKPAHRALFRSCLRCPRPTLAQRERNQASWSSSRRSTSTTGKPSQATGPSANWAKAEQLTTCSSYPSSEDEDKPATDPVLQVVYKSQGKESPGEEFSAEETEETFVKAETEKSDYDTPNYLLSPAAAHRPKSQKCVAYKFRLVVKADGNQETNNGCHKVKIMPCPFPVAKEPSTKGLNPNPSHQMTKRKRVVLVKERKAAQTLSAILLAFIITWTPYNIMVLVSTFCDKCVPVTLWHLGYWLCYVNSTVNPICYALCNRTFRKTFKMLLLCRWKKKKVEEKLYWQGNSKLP
UniProt P21918: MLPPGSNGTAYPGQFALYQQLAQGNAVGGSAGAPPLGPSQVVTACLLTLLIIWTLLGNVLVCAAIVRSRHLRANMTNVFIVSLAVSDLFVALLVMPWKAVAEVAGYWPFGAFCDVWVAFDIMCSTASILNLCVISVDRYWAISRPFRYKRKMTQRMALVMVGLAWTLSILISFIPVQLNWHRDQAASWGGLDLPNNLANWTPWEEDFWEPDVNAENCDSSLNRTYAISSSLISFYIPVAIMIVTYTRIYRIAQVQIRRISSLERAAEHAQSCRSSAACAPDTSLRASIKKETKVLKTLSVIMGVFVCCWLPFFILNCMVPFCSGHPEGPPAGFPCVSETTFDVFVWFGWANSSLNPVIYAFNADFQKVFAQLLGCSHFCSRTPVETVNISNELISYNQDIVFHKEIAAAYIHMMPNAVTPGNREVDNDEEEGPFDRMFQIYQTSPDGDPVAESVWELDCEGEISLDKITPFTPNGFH
UniProt P32121: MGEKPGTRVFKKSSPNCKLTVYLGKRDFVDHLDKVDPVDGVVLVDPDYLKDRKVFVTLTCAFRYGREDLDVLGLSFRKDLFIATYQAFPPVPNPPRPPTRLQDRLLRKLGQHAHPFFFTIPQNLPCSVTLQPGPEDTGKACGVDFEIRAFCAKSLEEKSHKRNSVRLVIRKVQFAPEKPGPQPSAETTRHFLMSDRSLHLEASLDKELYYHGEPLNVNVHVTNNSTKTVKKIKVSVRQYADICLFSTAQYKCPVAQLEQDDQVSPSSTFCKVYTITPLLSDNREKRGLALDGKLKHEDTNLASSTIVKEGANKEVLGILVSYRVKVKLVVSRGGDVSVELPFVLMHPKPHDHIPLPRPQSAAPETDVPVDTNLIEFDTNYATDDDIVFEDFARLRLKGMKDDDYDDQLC

No constants are given. Whether binding was seen depends on the method and setting. Some entries that bind do so weakly or less than the wild type. For some of these results: Tags and fused reporters may be left off the sequences shown.

Take “β-arrestin-2-permuted luciferase (β-arr-2-pLuc) (from UniProt P32121 1-409)”: the binding entry in assay [1], in assay [2] and in assay [3] was “binds” each time.

B1: 14-3-3γ-pLuc (protein, UniProt P61981 1-247)
chain: MVDREQLVQKARLAEQAERYDDMAAAMKNVTELNEPLSNEERNLLSVAYKNVVGARRSSWRVISSIEQKTSADGNEKKIEMVRAYREKIEKELEAVCQDVLSLLDNYLIKNCSETQYESKVFYLKMKGDYYRYLAEVATGEKRATVVESSEKAYSEAHEISKEHMQPTHPIRLGLALNYSVFYYEIQNAPEQACHLAKTAFDDAIAELDTLNEDSYKDSTLIMQLLRDNLTLWTSDQQDDDGGEGNN
For the molecule B1, the binding result is “binds” in assay [4], “binds” with DRD5(S464A)-TEV (human), “no binding” with DRD5(T443A)-TEV (human) and “binds” in assay [5].
